Experimental data taken from the supplement of paper PMC5355238.
Counter-ions that a name gives are not always drawn. ± gives the standard deviation of the averaged measurements. The list shows a part of the results. Most values come without repeats; read them as rough.

tested on: Reh; assay: S-phase gammaH2AX median, Z-score vs plate median (drug alone); higher = more S-phase DNA damage; conditions: MK1775 concentration 0 nM; 10 µM; 4 h

Structure (SMILES)	S-phase gammaH2AX median (Z-score)
CNC(=O)[C@H]1O[C@@H](n2cnc3c(NCc4ccc(N)cc4)ncnc32)[C@H](O)[C@@H]1O	-0.0718
COc1cc2c(cc1O)CC[C@@H]1[C@@H]2CC[C@]2(C)[C@@H](O)CC[C@@H]12 [2-methoxyestradiol]	0.18
COc1cc2c(cc1O)CC[C@@H]1[C@@H]2CC[C@]2(C)[C@@H](O)CC[C@@H]12 [2-Methoxyestradiol]	0.115
COC(=O)C1=C(C)NC(C)=C(C(=O)OC)C1c1ccccc1[N+](=O)[O-] [Nifedipine]	0.161
CN(C)CCCN1c2ccccc2CCc2ccc(Cl)cc21 [Clomipramine hydrochloride]	0.00388
NC(=O)c1ccc2nc(-c3ccc(Oc4ccc(Cl)cc4)cc3)[nH]c2c1	0.00348
CC(C)[C@H](C(=O)Nc1ccc(C(=O)NO)cc1)c1ccccc1	0.122
COc1cc2c(CCNC(C)=O)c[nH]c2cc1O [6-Hydroxymelatonin]	0.148
COc1ccc(CCN(C)CCc2ccc(OC)c(OC)c2)cc1OC [YS-035 hydrochloride]	0.113
CC[N+](CC)(CC)CC [Tetraethylammonium chloride]	0.207
CC1(CN2CCC(n3c(=O)[nH]c4ccccc43)CC2)OCc2ccccc2-n2cccc21 (configuration not stated)	0.106
Cc1cccc(-c2[nH]c(C(C)(C)C)nc2-c2ccc3nccnc3c2)n1	0.0313
Cc1ccccc1/C=C/C1=NCCN1 [Metrazoline oxalate]	-0.0733
O=c1[nH]cc(F)c(=O)[nH]1 [5-Fluorouracil]	-0.312
O=c1[nH]cc(F)c(=O)[nH]1 [Adrucil (Fluorouracil)]	0.0313
CC(C)Cc1ccc([C@H](C)C(=O)O)cc1 [S(+)-Ibuprofen]	0.18
N=c1ccn2c(n1)O[C@H]1[C@H](O)[C@@H](CO)O[C@H]12 [Ancitabine hydrochloride]	6.23
C[N+](C)(C)CCO.[Br-] [Choline bromide]	0.109
O=C(O)Cc1ccccc1Nc1c(Cl)cccc1Cl [Diclofenac sodium]	-0.0063
O=c1c(-c2ccc(O)cc2)coc2cc(O)cc(O)c12 [Genistein]	0.271
C[C@H](NC(=O)Cc1cc(F)cc(F)c1)C(=O)N[C@@H]1C(=O)N(C)c2ccccc2-c2ccccc21	-0.0592
COC(=O)[C@H]1[C@H]2C[C@@H]3c4[nH]c5cc(OC)ccc5c4CCN3C[C@H]2C[C@@H](OC(=O)c2cc(OC)c(OC)c(OC)c2)[C@@H]1OC [Reserpine]	-0.138
O=C(O)CN(CCOCCOCCN(CC(=O)O)CC(=O)O)CC(=O)O	0.0661
CNC(=C[N+](=O)[O-])NCCSCc1ccc(CN(C)C)o1 [Ranitidine hydrochloride]	0.133

A section taken from the entries so far, as a working copy:
Structure (SMILES)	S-phase gammaH2AX median (Z-score)
O=c1c(-c2ccc(O)cc2)coc2cc(O)cc(O)c12 [Genistein]	0.271
C[C@H](NC(=O)Cc1cc(F)cc(F)c1)C(=O)N[C@@H]1C(=O)N(C)c2ccccc2-c2ccccc21	-0.0592
COC(=O)[C@H]1[C@H]2C[C@@H]3c4[nH]c5cc(OC)ccc5c4CCN3C[C@H]2C[C@@H](OC(=O)c2cc(OC)c(OC)c(OC)c2)[C@@H]1OC [Reserpine]	-0.138
O=C(O)CN(CCOCCOCCN(CC(=O)O)CC(=O)O)CC(=O)O	0.0661
CNC(=C[N+](=O)[O-])NCCSCc1ccc(CN(C)C)o1 [Ranitidine hydrochloride]	0.133

Continuation:

Structure (SMILES)	S-phase gammaH2AX median (Z-score)
CC(C)C[C@H](NC(=O)[C@@H](O)[C@H](N)Cc1ccccc1)C(=O)O [Bestatin hydrochloride]	0.0136
CC(C)C[C@H](NC(=O)[C@@H](O)[C@H](N)Cc1ccccc1)C(=O)O [Ubenimex (Bestatin)]	-0.0367
O=C(O[C@@H]1Cc2c(O)cc(O)cc2O[C@@H]1c1cc(O)c(O)c(O)c1)c1cc(O)c(O)c(O)c1 [(-)-Epigallocatechin gallate]	-0.0452
CC(C)C[C@H](NC(=O)CNC(=O)c1cc(Cl)ccc1Cl)B(O)O	-0.149
CC(=O)NNC(=O)N1Cc2ccccc2Oc2ccc(Cl)cc21	-0.0334
CNC[C@H](O)c1cccc(O)c1 [Phenylephrine hydrochloride]	0.0142
CCOc1ccn(-c2ccc(F)cc2)c(=O)c1C(=O)Nc1ccc(Oc2ccnc(N)c2Cl)c(F)c1	-0.00425
[Cl-].[Li+] [Lithium Chloride]	0.0126
CCCCCCN(CCCCCC)C(=O)Cc1c(-c2ccc(F)cc2)[nH]c2ccccc12 [N,N-Dihexyl-2-(4-fluorophenyl)indole-3-acetamide]	0.0882
CCN(CC)CCNC(=O)c1ccc(NC(C)=O)cc1 [N-Acetylprocainamide hydrochloride]	0.0874
CO[C@H]1C[C@@H]2CC[C@@H](C)[C@@](O)(O2)C(=O)C(=O)N2CCCC[C@H]2C(=O)O[C@H]([C@H](C)C[C@@H]2CC[C@@H](O)[C@H](OC)C2)CC(=O)[C@H](C)/C=C(\C)[C@@H](O)[C@@H](OC)C(=O)[C@H](C)C[C@H](C)/C=C/C=C/C=C/1C [Rapamycin (Sirolimus)]	-0.0885
Oc1ccc(Nc2nc(-c3ccc(Cl)cc3)cs2)cc1	-0.0367
CNc1cc(NS(=O)(=O)c2ccc(N)cc2)nc(NC)n1 [Ro 04-6790 dihydrochloride]	0.254
Nc1ncnc2c1ncn2C1OC(C(=O)NC2CC2)C(O)C1O (configuration not stated) [5'-(N-Cyclopropyl)carboxamidoadenosine]	0.0524
CC(=O)N1CCN(c2ccc(OCC3COC(Cn4ccnc4)(c4ccc(Cl)cc4Cl)O3)cc2)CC1 (configuration not stated) [Ketoconazole]	-0.0661
CC1=C(C)C(=O)C(CCCCC#CCCCC#CCO)=C(C)C1=O	0.0466
CC(C)NCC(O)c1ccc(NS(C)(=O)=O)cc1 (configuration not stated) [(?)-Sotalol hydrochloride]	0.1
CC(N)(C(=O)O)c1ccc(C(=O)O)cc1 (stereo not drawn) [(?)-alpha-Methyl-4-carboxyphenylglycine]	0.116
CC#CCOC(=O)c1c(C)nc2sc3c(c2c1N)CCC(O)C3 (configuration not stated)	-0.0467
C[C@@H]1O[C@@H]1P(=O)(O)O [Phosphomycin disodium]	-0.0473
Cn1c(=O)c2[nH]c(-c3ccc(S(=O)(=O)O)cc3)nc2n(C)c1=O [8-(p-Sulfophenyl)theophylline]	-0.0641
C[C@]12C=CC(=O)C=C1CC[C@@H]1C2=CC[C@]2(C)[C@@H](C(=O)CN3CCN(c4cc(N5CCCC5)nc(N5CCCC5)n4)CC3)CC[C@@H]12	0.0868
O=C(O)C1=CCNCC1 [Isoguvacine hydrochloride]	0.148
CCC1=C[C@@H]2CN(C1)Cc1c([nH]c3ccccc13)[C@@](C(=O)OC)(c1cc3c(cc1OC)N(C)[C@H]1[C@@](O)(C(=O)OC)[C@H](OC(C)=O)[C@]4(CC)C=CCN5CC[C@]31[C@@H]54)C2 [Vinorelbine (Navelbine)]	-0.0321

Structure (SMILES)	S-phase gammaH2AX median (Z-score)
CCn1cc(C(=O)O)c(=O)c2cc(F)c(N3CCNC(C)C3)c(F)c21 (configuration not stated) [Lomefloxacin hydrochloride]	-0.189
NC(=O)c1cc[n+](CC2=C(C(=O)O)N3C(=O)[C@@H](NC(=O)C(c4ccccc4)S(=O)(=O)[O-])[C@H]3SC2)cc1 (some centres not stated) [Cefsulodin sodium salt hydrate]	0.0796
CS(=O)(=O)Nc1ccc([N+](=O)[O-])cc1Oc1ccccc1 [Nimesulide]	0.00473
CCc1c2c(nc3ccc(OC(=O)N4CCC(N5CCCCC5)CC4)cc13)-c1cc3c(c(=O)n1C2)COC(=O)[C@]3(O)CC [Irinotecan HCl Trihydrate (Campto)]	2.68
CNCCC=C1c2ccccc2CCc2ccccc21 [Nortriptyline hydrochloride]	-0.0851
O=c1onc2n1-c1cc(Br)ccc1OC2	-0.0473
CCC[C@H](NC(=O)/C(C#N)=C/c1cccc(Br)n1)c1ccccc1	2.99
Cc1ccc(/C(=C\CN2CCCC2)c2ccccn2)cc1 [Triprolidine hydrochloride]	0.22
NC(=O)c1ncn([C@@H]2O[C@H](CO)[C@@H](O)[C@H]2O)c1O [Mizoribine]	0.102
Nc1ncnc2c1ncn2[C@@H]1O[C@H](COP(=O)(O)CP(=O)(O)OP(=O)(O)O)[C@H](O)C1O (stereo partly drawn) [alpha,beta-Methylene adenosine 5'-triphosphate dilithium]	-0.026
CCOc1cc2ncc(C#N)c(Nc3ccc(OCc4ccccn4)c(Cl)c3)c2cc1NC(=O)/C=C/CN(C)C [Neratinib (HKI-272)]	-0.0885
N#CC(c1ccnc(NCCc2cccnc2)n1)c1nc2ccccc2s1 (configuration not stated) [JNK Inhibitor V]	-0.0375
CN(N=O)C(=O)N[C@@H](C=O)[C@@H](O)[C@H](O)[C@H](O)CO [Streptozotocin (Zanosar)]	0.0259
Cn1cc(C2=C(c3ccc(Cl)cc3Cl)C(=O)NC2=O)c2ccccc21	0.09232 ± 0.00011
Cc1ccc(C(=O)Nc2ccc(S(=O)(=O)O)c3cc(S(=O)(=O)O)cc(S(=O)(=O)O)c23)cc1NC(=O)c1cccc(NC(=O)Nc2cccc(C(=O)Nc3cc(C(=O)Nc4ccc(S(=O)(=O)O)c5cc(S(=O)(=O)O)cc(S(=O)(=O)O)c45)ccc3C)c2)c1 [Suramin hexasodium]	-0.327
CNCC[C@H](Oc1ccc(C(F)(F)F)cc1)c1ccccc1 [S-(+)-Fluoxetine hydrochloride]	-0.239
CC(=O)OCC(=O)[C@@]1(O)CC[C@H]2[C@@H]3CCC4=CC(=O)CC[C@]4(C)[C@H]3C(=O)C[C@@]21C [Cortisone 21-acetate]	-0.0194
Cn1cc(C(=O)OCC2CCN(CCNS(C)(=O)=O)CC2)c2ccccc21	-0.0447
O=C1c2c(O)cc(O)cc2OC(c2ccc(O)c(O)c2)C1O (configuration not stated) [(?)-Taxifolin]	-0.214
O=C1c2ccccc2C(=O)c2c(NCCc3ccc(O)cc3)ccc(NCCc3ccc(O)cc3)c21	0.136
Cc1nc(N=Nc2ccc(C(=O)O)cc2)c(COP(=O)(O)O)c(C=O)c1O	0.0426
C[C@H]1C[C@H]2[C@@H]3CCC4=CC(=O)C=C[C@]4(C)[C@@]3(Cl)[C@@H](O)C[C@]2(C)[C@@]1(O)C(=O)CO [Beclomethasone]	-0.068
COc1cc2nc(N3CCN(C(=O)C4CCCO4)CC3)nc(N)c2cc1OC (configuration not stated) [Terazosin hydrochloride]	0.04
Oc1ccc(O)cc1 [Hydroquinone]	-0.523
